Results are given in words; binding and its absence hold for the method and conditions named. Binding seen in cells or lysates may run through a third protein. Some binding calls cover weakened binding; strength is not graded here.
How the values were obtained:
[1] = molecular target: T1, Bak (mouse (endogenous in retina)) (UniProt O08734); test: co-IP; Pierce co-IP kit; pre-cleared lysates of retinas of wt or Rac1 cKO mice; precipitated with Bcl-2 or Bak antibody (human IgG as negative control), detected by Beclin1 antibody on western blot
T1 sequence: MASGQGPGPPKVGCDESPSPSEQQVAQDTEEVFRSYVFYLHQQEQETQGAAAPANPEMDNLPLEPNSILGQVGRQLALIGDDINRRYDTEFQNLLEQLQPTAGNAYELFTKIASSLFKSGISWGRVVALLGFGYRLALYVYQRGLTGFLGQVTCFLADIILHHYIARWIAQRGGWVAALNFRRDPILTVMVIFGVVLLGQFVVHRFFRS

[2] = molecular target: T2, Bcl-2 (mouse (endogenous in retina)), P10417; test: as above; details: remark: other sources report otherwise
T2 chain: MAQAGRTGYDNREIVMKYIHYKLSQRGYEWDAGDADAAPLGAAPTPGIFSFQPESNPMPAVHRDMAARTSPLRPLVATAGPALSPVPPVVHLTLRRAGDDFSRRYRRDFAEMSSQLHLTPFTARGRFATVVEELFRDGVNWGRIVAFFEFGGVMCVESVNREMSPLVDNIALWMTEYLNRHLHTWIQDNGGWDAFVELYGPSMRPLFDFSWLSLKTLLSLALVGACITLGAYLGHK

Molecule	binding [1]	binding [2]
Beclin1 (from UniProt O88597 1-448)	binds	
Beclin1, O88597 1-448 (protein) MEGSKASSSTMQVSFVCQRCSQPLKLDTSFKILDRVTIQELTAPLLTTAQAKPGETQEEEANSGEEPFIETRQDGVSRRFIPPARMMSTESANSFTLIGEASDGGTMENLSRRLKVTGDLFDIMSGQTDVDHPLCEECTDTLLDQLDTQLNVTENECQNYKRCLEILEQMNEDDSEQLQRELKELALEEERLIQELEDVEKNRKVVAENLEKVQAEAERLDQEEAQYQREYSEFKRQQLELDDELKSVENQVRYAQIQLDKLKKTNVFNATFHIWHSGQFGTINNFRLGRLPSVPVEWNEINAAWGQTVLLLHALANKMGLKFQRYRLVPYGNHSYLESLTDKSKELPLYCSGGLRFFWDNKFDHAMVAFLDCVQQFKEEVEKGETRFCLPYRMDVEKGKIEDTGGSGGSYSIKTQFNSEEQWTKALKFMLTNLKWGLAWVSSQFYNK		binds

From PMC7484783
